115 molecules from PubChem BioAssay AID1508615 (Milbrandt Lab, Department of Genetics, Washington …, 2020) can be followed below.

The chains behind the UniProt entries cited, without tags or fusion partners. Where a name states a change or a piece, a line headed by the entry shows the natural chain unless it says otherwise.
UniProt Q6SZW1: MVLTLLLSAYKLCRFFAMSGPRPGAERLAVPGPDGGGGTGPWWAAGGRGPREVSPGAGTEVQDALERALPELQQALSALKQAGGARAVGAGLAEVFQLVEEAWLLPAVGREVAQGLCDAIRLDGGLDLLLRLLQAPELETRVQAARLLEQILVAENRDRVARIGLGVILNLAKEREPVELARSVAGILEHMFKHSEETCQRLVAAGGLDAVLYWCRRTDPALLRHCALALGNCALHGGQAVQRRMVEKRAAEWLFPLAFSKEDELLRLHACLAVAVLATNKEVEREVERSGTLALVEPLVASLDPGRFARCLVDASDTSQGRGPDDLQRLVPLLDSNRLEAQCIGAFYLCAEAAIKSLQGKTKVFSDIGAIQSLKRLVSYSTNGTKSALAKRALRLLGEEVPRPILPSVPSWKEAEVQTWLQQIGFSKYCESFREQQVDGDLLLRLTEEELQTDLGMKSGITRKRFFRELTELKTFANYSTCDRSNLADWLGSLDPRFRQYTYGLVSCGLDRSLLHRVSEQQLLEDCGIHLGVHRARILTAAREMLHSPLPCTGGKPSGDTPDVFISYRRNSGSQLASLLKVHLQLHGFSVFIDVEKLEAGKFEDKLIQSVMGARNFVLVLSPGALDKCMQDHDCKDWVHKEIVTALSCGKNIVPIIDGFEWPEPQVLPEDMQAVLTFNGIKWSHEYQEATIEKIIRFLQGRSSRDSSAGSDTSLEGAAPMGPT

Among all 1,600 compounds or so, about 20 (1%) were called active.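 Rule for the calls: active = ratio of uncleaved NAD to its breakdown product ADP-ribose above 4, meaning the enzyme was inhibited; inactive = the rest.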 Some of the results follow.

The test addresses NAD(+) hydrolase SARM1 (Homo sapiens) (UniProt Q6SZW1). As to the kind of experiment: inhibition of SAM-TIR NAD hydrolysis to ADPR – cell lysate, HPLC readout, primary screen (AID 1508615).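 Note: substrate NAD at 5 µM with 60 min at 37 °C.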 The note with it: HEK293T SAM-TIR lysate, NAD/ADPR ratio by HPLC; at 5 µM; stronger effect = higher value.
In the case of `CC(=O)Nc1ccc(S(=O)(=O)N=S(C)C)cc1`, the NAD/ADPR ratio was inactive: 3.
Then `NC(=O)c1nnsc1-c1ccc(-c2snnc2C(N)=O)cc1`, with inactive: 3; and `CN(C)c1ccc(C(c2ccc(N(C)C)cc2)c2ccc([N+](=O)[O-])cc2)cc1`, with inactive: 3.
Then `CC1=NCC(C)c2ccccc21` (stereo not given), with inactive: 3; and `Nc1ccc(SCc2nc3cccc4c3n2CCC4)cc1`, with inactive: 3.
With `COc1cccc2nc3cc(C)c(C)cc3nc12`, the NAD/ADPR ratio is inactive: 3.
Then `COc1cc(C(=O)c2cocc2C(=O)c2ccc3c(c2)OCO3)cc(OC)c1OC`, with inactive: 3.
Then `COc1cc2oc3cc(C)oc(=O)c3c2cc1OC`, with inactive: 3; and `O=c1cc(-c2ccccc2)nc2cc(-c3ccco3)[nH]n12`, with inactive: 3; and `CC(=O)Nc1ccc(OCCOc2ccc([N+](=O)[O-])cc2)cc1`, with inactive: 3.
As for `CCN1CCC(Nc2ccnc3cc(Cl)ccc23)CC1`, the NAD/ADPR ratio was inactive: 3.
Take `CCOC(=O)C1CC(C)=C(C)CC1C(=O)O` (stereo not given): the NAD/ADPR ratio is inactive: 3.
With `CCC(CO)Nc1nc2ccc(Cl)cc2c2ccccc12` (stereo not given), the NAD/ADPR ratio is inactive: 3.
Consider `NC(N)=NS(=O)(=O)c1ccc(N=C2C(=O)Nc3ccccc32)cc1`, for which the NAD/ADPR ratio was inactive: 3.
Consider `CCCCC(=O)N(CCC)CCC`, for which the NAD/ADPR ratio is inactive: 3.
For `O=C(Nc1ccsn1)c1ccc(Cl)cc1Cl`, the NAD/ADPR ratio was inactive: 3.
Then `Cc1cc(=O)n2c3c(c4c(cc13)c(CN(C)C)cc(=O)n4C)OC2`, with inactive: 3; and `Oc1cccc2cnccc12`, with inactive: 3.
As for `CCOC(=O)/C=C/c1ccc(C(=O)OCC)[nH]1`, the NAD/ADPR ratio was inactive: 3.
Then `COc1cc(C(O)c2nc3ccccc3s2)cc(OC)c1OC` (stereo not given), with inactive: 3.
Next, `O=C1CCCC1C(=O)Nc1ccc2ccccc2c1` (stereo not given): inactive: 3; `Cc1c(-c2ccccc2)n(O)[n+]([O-])c1-c1ccccc1`: inactive: 3.
Next, `CSc1cccc(NC(=O)Nc2ccccc2C(N)=O)c1`: inactive: 3.
Regarding `Clc1nc2nc3n(c2nc1Cl)CCC3`, the NAD/ADPR ratio was inactive: 3.
Next, `CCNc1nn2ccccc2c1/C=C(\C#N)C(=O)OCC`: inactive: 3; `COc1ccc(C2CN=NC2C(=O)c2ccccc2)cc1` (stereo not given): inactive: 3; `CN(C)CC1C2CCC(C2)C1O` (stereo not given): inactive: 3.
Then `CN1CCN(C(=O)/C=C/c2ccc([N+](=O)[O-])o2)CC1`, with inactive: 3.
With `COC(=O)C1(C)Cc2cc(OC(C)=O)c(OC(C)=O)cc2N1` (stereo not given), the NAD/ADPR ratio is inactive: 3.
Then `N#C/C(=C\c1cccnc1)c1ccc(Br)cc1`, with inactive: 3; and `COc1cc2c(cc1OC)[N+]([O-])=C(c1ccccc1)C2=O`, with inactive: 3; and `Cn1cnc([N+](=O)[O-])c1Sc1nnc(-c2cccnc2)n1C`, with inactive: 3.
Then `COc1ccccc1N=NNc1ccccc1OC`, with inactive: 3.
Next, `CC1=C(C#N)C(C)(C)C(C#N)=C(C)N1`: inactive: 3; `COC(=O)Cc1[nH]c(Cl)nc1C(N)=O`: inactive: 3.
As for `NC(=O)c1ccc2c(c1)S(=O)(=O)c1ccccc1C2=O`, the NAD/ADPR ratio is inactive: 3.
Next, `Cn1ncc2c(=O)[nH]c(N)nc21`: inactive: 3; `CCOC(=O)c1cc2c(OC)c(OC)ccc2c2[nH]cc(C#N)c(=O)c12`: inactive: 3.
Next, `O=C(O)/C=C/C(=O)N1Cc2cc3ccccc3nc2C1`: inactive: 3; `Nc1ncnc2c(C3OC(CO)C(O)C3O)c[nH]c12` (stereo not given): inactive: 3; `Cn1c(=O)c2[nH]c(CNc3ccc(C(=O)O)cc3)nc2n(C)c1=O`: inactive: 3.
Turning to `O=C(O)c1ccc(O)c(O)c1`, the NAD/ADPR ratio was inactive: 3.
Then `COc1ccc(C(=O)Oc2ccc[nH]c2=O)cc1`, with inactive: 3.
Next, `CCN(CC)CCNC(=O)C(Cl)=C1C(Cl)=C(Cl)C(Cl)=C1Cl`: inactive: 3.
For `CCCCCCCCCCCCC(NC(C)=O)(C(=O)OCC)C(=O)OCC`, the NAD/ADPR ratio was inactive: 3.
Then `COc1c(O)ccc2c1CN1CCc3cc4c(cc3C1C2)OCO4` (stereo not given), with inactive: 3; and `Nc1ccc(/C=C/c2ccc3ncccc3c2)cc1`, with inactive: 3; and `Cc1cnc(SCc2ccc(Cl)cc2Cl)[nH]c1=O`, with inactive: 3.
Next, `CC(=O)C1C=CC(C)(C(=O)O)C2C=C(C)C(=O)C(C)(O)C12` (stereo not given): inactive: 3; `ClC1=C(Cl)C(Cl)=C(Cl)C1=C/C=C/c1ccccc1`: inactive: 3; `Nc1cc([N+](=O)[O-])ccc1Nc1ccc(O)cc1`: inactive: 3.
Then `COc1ccc2nc3cc(Cl)ccc3c(Nc3cc(C(C)C)c(O)cc3C)c2c1`, with inactive: 3; and `Cc1[nH]ccc2c1[nH]c1cc(=O)ccc12`, with inactive: 3.
Consider `Cn1c(CO)cnc1-c1ccccc1`, for which the NAD/ADPR ratio is inactive: 3.
Next, `CC1(C)C2CCC(CN=C(N)CSS(=O)(=O)O)C1C2` (stereo not given): inactive: 3.
Next, `O=C(O)c1nc2nc(Cl)c(Cl)nc2[nH]1`: inactive: 3; `COC(=O)C1(C(=O)OC)C2C(=O)C3C(C21)C3(C(=O)OC(C)(C)C)C(=O)OC(C)(C)C` (stereo not given): inactive: 3.
With `NS(=O)(=O)c1ccc(Nc2ccccc2)c([N+](=O)[O-])c1`, the NAD/ADPR ratio is inactive: 3.
Then `S=c1[nH]c2ccccc2n2cccc12`, with inactive: 3; and `CCOC(=O)Cn1nc2oc(=O)c(CCN3CCN(c4ccccc4OC)CC3)c(C)c2c1C`, with inactive: 3; and `NNC(=O)CNC(=O)Nc1n[nH]c(=S)s1`, with inactive: 3.
On to `NC(=O)C1=C(N)c2ccccc2C1c1ccccc1` (stereo not given), for which the NAD/ADPR ratio is inactive: 3.
For the molecule `Nc1nc(SCc2ccccn2)c2ncn(C3OC(CO)C(O)C3O)c2n1` (stereo not given), the NAD/ADPR ratio was inactive: 3.
Then `O=C1CSC(=S)N1/N=C/c1c[nH]c2ccc(Br)cc12`, with inactive: 3.
Then `CCCCCOc1ccc(N2C(=O)C(C)CNC2=S)cc1` (stereo not given), with inactive: 3.
Then `C=CCSC(CC)(CC)C(N)=O`, with inactive: 3; and `CCOC(=O)N1CCc2cc(OC)c(OC)c3c2c1cc1cc(OC)c(OC)cc13`, with inactive: 3; and `O=C(Nc1ccc(C2=NCCN2)cc1)c1ccc(C(=O)Nc2ccc(C3=NCCN3)cc2)c(Cl)c1`, with inactive: 3.
As for `CCCCOC(=O)c1cccnc1`, the NAD/ADPR ratio was inactive: 3.
Next, `O=C(Nc1cccc(-c2nc3ccccc3[nH]2)c1)c1ccc(C(=O)Nc2cccc(-c3nc4ccccc4[nH]3)c2)cc1`: inactive: 3; `CCN(CC)CCN1c2ccccc2Sc2ccc3ccccc3c21`: inactive: 3; `Cc1cccc(N2CCN(CC(O)COc3ccc(Cl)cc3)CC2)c1` (stereo not given): inactive: 3.
Then `c1ccc(-c2nnc3nc(N4CCCCC4)nc(N4CCCCC4)n23)cc1`, with inactive: 3; and `CCOC(=O)Cc1cc(=O)c2cc(C)ccc2[nH]1`, with inactive: 3.
For the molecule `CCc1noc2cc(-c3ccccc3)n(C)c(=O)c12`, the NAD/ADPR ratio is inactive: 3.
Take `O=C(/C=C/c1ccc(Cl)s1)c1ccc(Cl)s1`: the NAD/ADPR ratio is inactive: 3.
Next, `Nc1nc(N)c(C=Nc2ccc(Br)cc2)c(Nc2ccc(Br)cc2)n1`: inactive: 3; `COC(=O)C1(F)C(=O)NC(=O)NC1OC` (stereo not given): inactive: 3.
Next, `CCCNC(=O)c1ccccc1C(=O)NC1(C(=O)NCCC)CCCC1`: inactive: 3; `Cc1ccc(N=Nc2c(N)nn(-c3ccccc3)c2N)cc1`: inactive: 3; `O=C1C=CC(=O)N1c1ccc(I)cc1Cl`: inactive: 3.
As to `Cc1cccc(C(O)C(O)c2cccc(C)n2)n1` (stereo not given), the NAD/ADPR ratio is inactive: 3.
Take `c1ccc2c(c1)cnc1ccccc12`: the NAD/ADPR ratio was inactive: 3.
As to `CC[C@@]1(O)C(=O)OCc2c1cc1n(c2=O)Cc2cc3c(N)cccc3nc2-1`, the NAD/ADPR ratio was inactive: 3.
Turning to `Nc1nc(N)c(N=Nc2ccc(C(=O)O)cc2)c(N)n1`, the NAD/ADPR ratio was inactive: 3.
In the case of `NC1=NC(c2ccccc2)N=C(Nc2ccccc2)N1` (stereo not given), the NAD/ADPR ratio is inactive: 3.
With `CCOc1ccc(S(=O)(=O)c2ccc(C)cc2)c2c1no[n+]2[O-]`, the NAD/ADPR ratio is inactive: 3.
Then `O=C(O)c1ccccc1-c1ccccc1C(=O)Nc1ccc2oc(=O)c3ccccc3c2c1`, with inactive: 3.
Next, `O=C(Nc1cccc(Cl)c1)c1cc(N=Nc2ccc([N+](=O)[O-])cc2Cl)ccc1O`: inactive: 3.
`COC1CC(C)C(OC)c2cc(O)cc(c2O)NC(=O)/C(C)=C/C=C\C(C)C(OC(N)=O)/C(C)=C\C(C)C1OC` (stereo not given): the NAD/ADPR ratio is inactive: 3.
Then `CC1CN(CCN2CC(C)N(C=O)CC2C)C(C)CN1C=O` (stereo not given), with inactive: 3; and `O=c1nc(Nc2cccc(Cl)c2)oc2cc(Cl)oc(=O)c12`, with inactive: 3.
Next, `Cn1c(=O)c2c(nc(Cc3ccc(N)cc3)n2C)n(C)c1=O`: inactive: 3.
For `c1ccc(-c2nnc(-c3ccccn3)s2)nc1`, the NAD/ADPR ratio is inactive: 3.
Next, `Nc1n[nH]c(-c2ccccc2)n1`: inactive: 3.
Turning to `COc1ccc2nc3cc(Cl)ccc3c(C#N)c2c1`, the NAD/ADPR ratio is inactive: 3.
For `Cc1ccc(N=Nc2c(O)ccc3n[nH]nc23)cc1`, the NAD/ADPR ratio is inactive: 3.
For the molecule `Clc1nc(Oc2ccccc2)nc(-c2cn(-c3ccccc3)c3ccccc23)n1`, the NAD/ADPR ratio is inactive: 3.
Then `N#C/C(=C\c1ccc[nH]1)C(=O)c1ccccc1`, with inactive: 3.
Next, `Cn1cnc([N+](=O)[O-])c1Sc1n[nH]c(N)n1`: inactive: 3; `Oc1ccccc1-n1c(-c2ccccc2)ccc1-c1ccccc1`: inactive: 3; `C=CCOc1ccnc(-c2ccccc2)n1`: inactive: 3.
In the case of `CC1CC(O)C2C3(C)CCCC2(COC3=O)C12CCC1(CCOC1=O)O2` (stereo not given), the NAD/ADPR ratio was inactive: 3.
Then `C(=C\c1ccccn1)/c1ccccn1`, with inactive: 3.
Next, `CC(=O)OCc1cc(-c2nc3ccccc3[nH]c2=O)nn1-c1ccc(Cl)cc1`: inactive: 3.
Next, `c1ccc(-c2ccc(-c3nccc4ccccc34)[nH]2)cc1`: inactive: 3; `N#CC1C=Cc2c(ccc3ccccc23)N1C(=O)c1ccccc1` (stereo not given): inactive: 3; `COc1ccc(CN2CCOC2=O)cc1OC`: inactive: 3.
Turning to `ONC(=NCc1ccccc1)c1ccccc1`, the NAD/ADPR ratio was inactive: 3.
`CS/C(=C\c1ccc(C(=O)c2ccc(C)cc2)n1C)S(C)=O` (stereo not given): the NAD/ADPR ratio is inactive: 3.
Then `Cc1cc(=O)oc2cc(OS(C)(=O)=O)ccc12`, with inactive: 3.
For the molecule `Cc1ccc(C(C)C)cc1NC(=O)Nc1ccc([N+](=O)[O-])cc1`, the NAD/ADPR ratio was inactive: 3.
Then `c1ccc(-c2ccc3c(c2)NCCN3)cc1`, with inactive: 3; and `O=c1oc(-c2ccccc2)c(-c2ccccc2)c2ccccc12`, with inactive: 3.
Next, `O=C(Oc1ccccc1)c1cccc2cccc(C(=O)Oc3ccccc3)c12`: inactive: 3.
